No constants are given. Whether binding was seen depends on the method and setting. Binding seen in cells or lysates may run through a third protein. Some binding calls cover weakened binding; strength is not graded here. For part of these data: Where a sequence is shown, tags or fusion partners need not be part of it.
Key:
[1] = molecular target: T1, COPB2 (human (endogenous in HEK293T)) (UniProt P35606); assay: co-IP
T1 sequence: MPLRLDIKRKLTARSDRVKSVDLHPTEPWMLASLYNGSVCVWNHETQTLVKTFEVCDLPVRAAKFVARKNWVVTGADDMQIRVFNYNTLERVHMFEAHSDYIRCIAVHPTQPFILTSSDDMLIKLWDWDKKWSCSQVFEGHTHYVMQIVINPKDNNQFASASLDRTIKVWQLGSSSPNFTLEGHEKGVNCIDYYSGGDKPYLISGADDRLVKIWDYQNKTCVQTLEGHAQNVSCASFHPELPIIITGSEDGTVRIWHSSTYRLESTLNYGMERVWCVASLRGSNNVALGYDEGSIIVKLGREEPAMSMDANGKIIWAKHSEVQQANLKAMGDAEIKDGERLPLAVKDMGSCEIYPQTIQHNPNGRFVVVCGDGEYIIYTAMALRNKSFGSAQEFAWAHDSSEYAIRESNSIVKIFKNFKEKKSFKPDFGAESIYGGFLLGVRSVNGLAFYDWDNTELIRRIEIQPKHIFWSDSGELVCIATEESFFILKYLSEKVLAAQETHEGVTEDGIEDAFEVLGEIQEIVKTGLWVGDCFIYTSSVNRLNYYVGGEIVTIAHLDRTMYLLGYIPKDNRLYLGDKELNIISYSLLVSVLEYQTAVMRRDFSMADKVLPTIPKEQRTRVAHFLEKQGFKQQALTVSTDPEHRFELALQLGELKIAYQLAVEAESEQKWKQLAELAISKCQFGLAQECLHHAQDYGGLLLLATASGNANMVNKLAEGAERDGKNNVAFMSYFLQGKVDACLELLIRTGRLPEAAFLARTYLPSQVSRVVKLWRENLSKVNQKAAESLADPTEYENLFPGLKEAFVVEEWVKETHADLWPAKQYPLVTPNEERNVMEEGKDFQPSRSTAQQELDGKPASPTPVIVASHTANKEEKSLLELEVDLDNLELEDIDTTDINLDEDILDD

[2] = molecular target: T2, Wnt7a-HA, full length (Wnt7a-FL) (human) (UniProt O00755); assay: co-IP
T2 sequence: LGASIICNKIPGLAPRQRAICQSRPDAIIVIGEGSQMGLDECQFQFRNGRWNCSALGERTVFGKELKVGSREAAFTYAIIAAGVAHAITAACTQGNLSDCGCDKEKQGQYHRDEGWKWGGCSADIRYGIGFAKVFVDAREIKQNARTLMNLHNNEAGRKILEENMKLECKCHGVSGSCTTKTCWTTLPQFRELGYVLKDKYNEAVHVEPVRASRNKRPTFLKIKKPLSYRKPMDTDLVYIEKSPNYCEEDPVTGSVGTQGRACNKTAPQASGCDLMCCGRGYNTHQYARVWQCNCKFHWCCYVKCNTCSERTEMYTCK

[3] = molecular target: T3, endogenous Wnt7a (human (endogenous in RPTEC-hTERT1)) (UniProt O00755); assay: proximity ligation
T3 sequence: T2 sequence

Wnt7a_ΔSP (human) = molecular target: T4, Wnt7a_ΔSP (human) (UniProt O00755); assay: proximity ligation
T4 sequence: T2 sequence

[4] = molecular target: T2, Wnt7a-HA, full length (Wnt7a-FL) (human); assay: proximity ligation
Wnt7a_ΔEBP*GSGS (human) = Wnt7a_ΔEBP*GSGS (human) (UniProt O00755); assay: proximity ligation

Measured: binding

B1: COPA (protein, UniProt P53621)
chain: MLTKFETKSARVKGLSFHPKRPWILTSLHNGVIQLWDYRMCTLIDKFDEHDGPVRGIDFHKQQPLFVSGGDDYKIKVWNYKLRRCLFTLLGHLDYIRTTFFHHEYPWILSASDDQTIRVWNWQSRTCVCVLTGHNHYVMCAQFHPTEDLVVSASLDQTVRVWDISGLRKKNLSPGAVESDVRGITGVDLFGTTDAVVKHVLEGHDRGVNWAAFHPTMPLIVSGADDRQVKIWRMNESKAWEVDTCRGHYNNVSCAVFHPRQELILSNSEDKSIRVWDMSKRTGVQTFRRDHDRFWVLAAHPNLNLFAAGHDGGMIVFKLERERPAYAVHGNMLHYVKDRFLRQLDFNSSKDVAVMQLRSGSKFPVFNMSYNPAENAVLLCTRASNLENSTYDLYTIPKDADSQNPDAPEGKRSSGLTAVWVARNRFAVLDRMHSLLIKNLKNEITKKVQVPNCDEIFYAGTGNLLLRDADSITLFDVQQKRTLASVKISKVKYVIWSADMSHVALLAKHAIVICNRKLDALCNIHENIRVKSGAWDESGVFIYTTSNHIKYAVTTGDHGIIRTLDLPIYVTRVKGNNVYCLDRECRPRVLTIDPTEFKFKLALINRKYDEVLHMVRNAKLVGQSIIAYLQKKGYPEVALHFVKDEKTRFSLALECGNIEIALEAAKALDDKNCWEKLGEVALLQGNHQIVEMCYQRTKNFDKLSFLYLITGNLEKLRKMMKIAEIRKDMSGHYQNALYLGDVSERVRILKNCGQKSLAYLTAATHGLDEEAESLKETFDPEKETIPDIDPNAKLLQPPAPIMPLDTNWPLLTVSKGFFEGTIASKGKGGALAADIDIDTVGTEGWGEDAELQLDEDGFVEATEGLGDDALGKGQEEGGGWDVEEDLELPPELDISPGAAGGAEDGFFVPPTKGTSPTQIWCNNSQLPVDHILAGSFETAMRLLHDQVGVIQFGPYKQLFLQTYARGRTTYQALPCLPSMYGYPNRNWKDAGLKNGVPAVGLKLNDLIQRLQLCYQLTTVGKFEEAVEKFRSILLSVPLLVVDNKQEIAEAQQLITICREYIVGLSVETERKKLPKETLEQQKRICEMAAYFTHSNLQPVHMILVLRTALNLFFKLKNFKTAATFARRLLELGPKPEVAQQTRKILSACEKNPTDAYQLNYDMHNPFDICAASYRPIYRGKPVEKCPLSGACYSPEFKGQICRVTTVTEIGKDVIGLRISPLQFR
no binding: Wnt7a_ΔEBP*GSGS (human)
binds: [1] | [2] | [3] | Wnt7a_ΔSP (human) | [4]

— doi:10.1101/2023.05.30.542914 (bioRxiv, 2023)
